Some of these results come from one statement about several compounds together.
Columns and labels:
Format in all cases: in vivo
[1] = test system: Diamondback moth (Plutella xylostella); test: Insecticidal test on diamondback moth, dip treatment of Chinese cabbage seedlings with laid eggs; details: seedlings with eggs dipped about 30 seconds, counted 6 days after dip treatment, 25° C.
[2] = test system: Western flower thrips (Frankliniella occidentalis); test: Insecticidal test on western flower thrips, larvae on kidney bean leaf pieces; details: hatched larvae on kidney bean leaf pieces, counted 4 days after treatment
From the text: (§1) • A: the mortality rate is 100%. • B: the mortality rate is 90 to 99%. • C: the mortality rate is 80 to 89%. • D: the mortality rate is 50 to 79%. • E: the mortality rate is 0 to 49.
Insecticidal Test on Western flower thrips (Frankliniella occidentalis)
Female adults of western flower thrips were inoculated onto kidney bean leaf pieces, and allowed to lay eggs thereon for one day, then the female adults were removed. After 3 days, the hatched larvae on the leaf pieces were counted, and then the agrochemical dispersions diluted to 50 ppm or 500 ppm, each of which contained the compound described in Tables 1 to 5 as an active ingredient were applied. The number of larvae of the species surviving at 4 days after the treatment was counted, and the corrected mortality rate was calculated according to the formula shown below, and the insecticidal efficacy was evaluated according to the criteria of Test Example 1. This test was conducted in duplicate.

[3] = test system: Small Brown Planthopper (Laodelphax striatellus); test: Insecticidal test on small brown planthopper, dip treatment of rice plant seedlings; details: rice seedlings dipped 30 seconds, 3rd-instar larvae, counted 8 days after inoculation
From the text: as §1
Insecticidal Test on Small Brown Planthopper (Laodelphax striatellus)
The compounds represented by the general formula (1) of the present invention or salts thereof were separately dispersed in water and diluted to 50 ppm or 500 ppm. Rice plant seedlings (variety: Nihonbare) were dipped in the agrochemical dispersions for 30 seconds. After air-dried, each seedling was put into a separate glass test tube and inoculated with ten 3rd-instar larvae of small brown planthopper, and then the glass test tubes were capped with cotton plugs. At 8 days after the inoculation, the numbers of surviving larvae and dead larvae were counted, the corrected mortality rate was calculated according to the formula shown below, and the insecticidal efficacy was evaluated according to the criteria of Test Example 1.

Row | SMILES | insecticidal efficacy (corrected mortality rate) against diamondback moth ([1]; 50 ppm dispersion) | insecticidal efficacy (corrected mortality rate) against diamondback moth ([1]; 500 ppm dispersion) | insecticidal efficacy (corrected mortality rate) against western flower thrips ([2]; 50 ppm) | insecticidal efficacy (corrected mortality rate) against western flower thrips ([2]; 500 ppm) | insecticidal efficacy (corrected mortality rate) against small brown planthopper ([3]; 50 ppm) | insecticidal efficacy (corrected mortality rate) against small brown planthopper ([3]; 500 ppm)
1 | [O-]c1c[n+](-c2ccc(C(F)(F)F)nc2)nc(O)c1C(=S)Nc1ccc(F)cc1 [1-89, 4-((4-fluorophenyl)carbamothioyl)-3-hydroxy-1-(6-(trifluoromethyl)pyridin-3-yl)pyridazin-1-ium-5-oleate] | A (the mortality rate is 100%.) | A (the mortality rate is 100%.) | A (the mortality rate is 100%.) | A (the mortality rate is 100%.) | A (the mortality rate is 100%.) | A (the mortality rate is 100%.)
2 | Cc1cccc(NC(=O)c2c([O-])c[n+](-c3ccc(C#N)cc3)nc2O)n1 [1-147] | A (the mortality rate is 100%.) | A (the mortality rate is 100%.) | A (the mortality rate is 100%.) | A (the mortality rate is 100%.) | A (the mortality rate is 100%.) | A (the mortality rate is 100%.)
3 | Cc1ccc(NC(=O)c2c([O-])c[n+](-c3ccc(Cl)nc3)nc2O)cc1 [1-74] | A (the mortality rate is 100%.) | A (the mortality rate is 100%.) |  |  |  | 
4 | CNC(=O)c1c([O-])c[n+](-c2ccc(C#N)c(Cl)c2)nc1O [1-39] |  | A (the mortality rate is 100%.) |  | A (the mortality rate is 100%.) | A (the mortality rate is 100%.) | A (the mortality rate is 100%.)
5 | COc1ccc(NC(=O)c2c([O-])c[n+](-c3ccc(C#N)nc3)nc2O)cn1 [1-126] |  | A (the mortality rate is 100%.) |  |  | A (the mortality rate is 100%.) | A (the mortality rate is 100%.)
6 | O=C(Nc1ccc(F)c(F)c1)c1c([O-])c[n+](-c2ccc(C3CC3)cc2)nc1O [1-8] |  | A (the mortality rate is 100%.) |  |  |  | 
7 | COc1cc(-[n+]2cc([O-])c(C(=O)Nc3ccc(C#N)cc3)c(O)n2)ccc1C#N [1-48] |  |  |  | A (the mortality rate is 100%.) |  | A (the mortality rate is 100%.)
8 | O=C(Nc1ccc(F)c(F)c1)c1c([O-])c[n+](-c2ccc(Cl)cc2)nc1O [1-3] | A (the mortality rate is 100%.) | A (the mortality rate is 100%.) |  |  |  | 
9 | N#Cc1ccc(-[n+]2cc([O-])c(C(=O)Nc3ccc(SC(F)(F)F)cc3)c(O)n2)cn1 [1-118] | A (the mortality rate is 100%.) | A (the mortality rate is 100%.) |  |  |  | 
10 | O=C(Nc1ccc(F)c(F)c1)c1c([O-])c[n+](-c2ccc(C(F)(F)F)cc2)nc1O [1-16] | A (the mortality rate is 100%.) | A (the mortality rate is 100%.) | A (the mortality rate is 100%.) | A (the mortality rate is 100%.) |  | 
11 | COc1ccc(NC(=O)c2c([O-])c[n+](-c3ccc(C#N)nc3)nc2O)nc1 [1-123] |  |  |  |  |  | A (the mortality rate is 100%.)
12 | NS(=O)(=O)c1ccc(-[n+]2cc([O-])c(C(=O)Nc3ccc(F)cc3)c(O)n2)cc1 [1-30] |  |  |  |  |  | A (the mortality rate is 100%.)
13 | COc1cc(-[n+]2cc([O-])c(C(=O)Nc3ccc(Cl)cn3)c(O)n2)ccc1C#N [1-51] |  |  |  |  |  | A (the mortality rate is 100%.)
14 | Cc1cc(NC(=O)c2c([O-])c[n+](-c3ccc(C(F)(F)F)cc3)nc2O)ccc1F [1-17] | A (the mortality rate is 100%.) | A (the mortality rate is 100%.) |  |  |  | 
15 | O=C(Nc1cccc(OC(F)(F)F)c1)c1c([O-])c[n+](-c2ccc(C(F)(F)F)nc2)nc1O [1-87] | A (the mortality rate is 100%.) | A (the mortality rate is 100%.) |  |  | A (the mortality rate is 100%.) | A (the mortality rate is 100%.)
16 | Cc1ccc(NC(=O)c2c([O-])c[n+](-c3cnc(C#N)c(C)c3)nc2O)cc1 [1-133] |  | A (the mortality rate is 100%.) |  |  |  | 
17 | COc1ccc(-[n+]2cc([O-])c(C(=O)Nc3ccc(F)cc3)c(O)n2)cn1 [1-145] | A (the mortality rate is 100%.) | A (the mortality rate is 100%.) |  | A (the mortality rate is 100%.) |  | 
18 | N#Cc1ncc(-[n+]2cc([O-])c(C(=O)Nc3ccc(F)cc3)c(O)n2)cc1F [1-128] | A (the mortality rate is 100%.) | A (the mortality rate is 100%.) | A (the mortality rate is 100%.) | A (the mortality rate is 100%.) |  | 
19 | Cc1cc(-[n+]2cc([O-])c(C(=O)Nc3ccc(F)nc3)c(O)n2)cnc1C#N [1-137] | A (the mortality rate is 100%.) | A (the mortality rate is 100%.) |  |  | A (the mortality rate is 100%.) | A (the mortality rate is 100%.)
20 | CCc1cccc(NC(=O)c2c([O-])c[n+](-c3ccc(Br)nc3)nc2O)n1 [1-146] |  | A (the mortality rate is 100%.) |  |  |  | 
21 | Cc1cc(NC(=O)c2c([O-])c[n+](-c3cnc(C#N)c(C)c3)nc2O)ccc1F [1-131] | A (the mortality rate is 100%.) | A (the mortality rate is 100%.) |  |  |  | 
22 | Cc1cc(NC(=O)c2c([O-])c[n+](-c3ccc(Cl)cc3)nc2O)ccc1F [1-5] | A (the mortality rate is 100%.) | A (the mortality rate is 100%.) |  |  |  | 
23 | N#Cc1ccc(NC(=O)c2c([O-])c[n+](-c3ccc(Cl)cn3)nc2O)cc1 [1-60] | A (the mortality rate is 100%.) | A (the mortality rate is 100%.) | A (the mortality rate is 100%.) | A (the mortality rate is 100%.) |  | 
24 | Cc1cc(NC(=O)c2c([O-])c[n+](-c3ccc(C(F)(F)F)cn3)nc2O)ccc1F [1-57] | A (the mortality rate is 100%.) | A (the mortality rate is 100%.) |  | A (the mortality rate is 100%.) |  | 
25 | Cc1cc(NC(=O)c2c([O-])c[n+](-c3ccc(Cl)nc3)nc2O)ccc1F [1-70] | A (the mortality rate is 100%.) | A (the mortality rate is 100%.) |  |  | A (the mortality rate is 100%.) | A (the mortality rate is 100%.)
26 | COc1cc(-[n+]2cc([O-])c(C(=O)Nc3ccc(F)c(C)c3)c(O)n2)ccc1C#N [1-49] | A (the mortality rate is 100%.) | A (the mortality rate is 100%.) |  |  |  | 
27 | COc1cc(-[n+]2cc([O-])c(C(=O)Nc3ccc(F)nc3)c(O)n2)ccc1C#N [1-55] |  | A (the mortality rate is 100%.) |  |  | A (the mortality rate is 100%.) | A (the mortality rate is 100%.)
